We go through one molecule from publication PMC12207404, “Significance of the CTP-binding motif for the interactions of S. coelicolor ParB with DNA, chromosome segregation, and sporogenic hyphal growth” (Nucleic Acids Research, 2025).

In this experiment the target is S. coelicolor ParB (ScParB), wild type, bacterial two-hybrid fusion (S. coelicolor) (UniProt Q9RFM2). Briefly: two-hybrid; bacterial two-hybrid (BACTH): pUT18C and pKT25 derivatives cotransformed into E. coli BTH101; blue colonies on LB agar with X-gal and 0.5 mM IPTG, 30°C, and β-galactosidase activity (Miller units).

No constants are given. Whether binding was seen depends on the method and setting. Some binding calls cover weakened binding; strength is not graded here. Sequences can lack the tags named with a protein.

B1: S. coelicolor ParB (ScParB), wild type, bacterial two-hybrid fusion (protein, UniProt Q9RFM2 1-368)
chain: MSERRRGLGRGLGALIPNAPTEKSVASAALGSAASAAPGAMPLLPNERGVAAAKVATLQHVSRETEELTAPQGVEGLRPPMGAHFAEVPLDAITPNPKQPRKDFDDDALAELVTSIREVGLLQPVVVRPTEPGRYELIMGERRFRACRELELDAIPAIVRATEDEKLLLDALLENLHRAQLNPLEEAFAYDQLLKDFNCTHDQLADRIGRSRPQVSNTLRLLKLSPKVQNRVAAGVLSAGHARALLSVDDPEEQDRLAHRIVAEGLSVRSVEEIVTLMGSRPQKPQRAKGPRAGSLVSPALSDLATRLSDRFETRVKVDLGQKKGKITVEFASMDDLERILGSLAPGEGPVLQKGLLEGEDEDGDAES
For the molecule B1, the binding result is “binds”.
